{"source": "PubChem BioAssay AID504834", "about": "(National Center for Advancing Translational Sciences (NCATS), 2011)", "note": "The campaign covered roughly 320,000 compounds. About 22,000 (6.9%) were called active. Inconclusive results, whose numbers are uncertain, are shown with a selection of clear calls. Calls follow the shape of the dose curve; as a rule, active = well fitted inhibition curve with a large enough effect; inconclusive = small, poorly fitted or top-dose-only effect, or another doubt; inactive = no such curve, though single readings can be large or run the other way. Potencies of inconclusive entries are doubtful fits and often do not repeat. Potency is read from the fitted curve at half-maximal effect."}
{"assay": "Primary qHTS for delayed death inhibitors of the malarial parasite plastid, 96 hour incubation", "conditions": "P. falciparum luciferase reporter growth; series mostly up to 28.7 µM", "in_short": "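Delayed-death screen, second-generation endpoint: infected erythrocytes, 2% hematocrit, 0.05% parasitemia final; 96 hours at 37 C, 5% CO2; luciferase detection reagent; luminescence decrease equals reduced growth.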"}
{"smiles": "Cc1ccc(-n2nc3c(=O)n(CC(=O)NCCc4ccco4)nc(C)c3c2C)cc1", "Potency": "active: 8.28 µM"}
{"smiles": "COc1ccc(C(=O)Nc2ccc(C3=NNC(=O)CC3C)cc2NC(=O)c2ccc(OC)cc2)cc1", "note": "(configuration not stated)", "Potency": "inconclusive: 1.85 µM [inhibitor, single point]"}
{"smiles": "O=C(CSc1nc(NS(=O)(=O)c2ccccc2)cc(=O)[nH]1)Nc1ccccc1Cl", "Potency": "inconclusive: 11.7 µM [inhibitor, single point]"}
{"smiles": "COc1ccc(-c2ccc(SCC(=O)NC3CCCC3)nn2)cc1OC", "Potency": "inconclusive: 18.5 µM [inhibitor, single point]"}
{"smiles": "Cc1ccc(C)c(NC(=O)CCc2nnc3ccc(NCc4ccco4)nn23)c1", "Potency": "inconclusive: 5.22 µM [inhibitor, partial curve]"}
{"smiles": "Cc1cc(C)cc(N(C(=O)CNC(=O)c2ccco2)C(C(=O)NC2CCCCC2)c2ccncc2)c1", "note": "(configuration not stated)", "Potency": "inactive"}
{"smiles": "COc1cccc(C(=O)Nc2ccc(NC(=O)C3CC=CCC3C(=O)O)cc2)c1", "note": "(configuration not stated)", "Potency": "active: 11.7 µM"}
{"smiles": "O=C(NCCc1ccncc1)Nc1ccc(F)cc1", "Potency": "inactive"}
{"smiles": "Cn1c(=O)[nH]c(=O)c2c1nc(N1CCCCCC1)n2CCCSc1nc2ccccc2o1", "Potency": "inactive"}
{"smiles": "Cc1ccn2cc(-c3ccc(O)c(O)c3)nc2c1", "Potency": "inconclusive: 4.65 µM [inhibitor, partial curve, poor fit]"}
{"smiles": "Cc1nc2ccccc2n1C(=O)c1ccccc1[N+](=O)[O-]", "Potency": "inconclusive: 0.117 µM [inhibitor, full curve, poor fit]"}
{"smiles": "CCC(Sc1ccc2nnc(-c3ccc(OC)c(OC)c3)n2n1)C(=O)O", "note": "(configuration not stated)", "Potency": "inconclusive: 1.04 µM [inhibitor, partial curve, poor fit]"}
{"smiles": "S=C(Nc1ccc(Nc2ccccc2)cc1)NN1CCOCC1", "Potency": "inactive"}
{"smiles": "CCOC(=O)c1cn(-c2c(Cl)cccc2Cl)c2cc(Cl)c([N+](=O)[O-])cc2c1=O", "Potency": "active: 8.28 µM"}
{"smiles": "CN(C)c1cc(Cl)c2nonc2c1N", "Potency": "inconclusive: 0.0029 µM [inhibitor, full curve, poor fit]"}
{"smiles": "CCCCNC(=O)C1c2ccccc2Oc2ccccc21", "Potency": "inactive"}
{"smiles": "C=CCn1c(SCC(=O)/C(C#N)=C(\\C)N)nc2sc(C)c(C)c2c1=O", "Potency": "inconclusive: 18.5 µM [inhibitor, single point]"}
{"smiles": "CC(C)n1nccc1N(Cc1ccc(C#N)cc1)S(=O)(=O)c1ccccc1", "Potency": "inconclusive: 14.7 µM [inhibitor, single point]"}
{"smiles": "CCc1nnc(NC(=O)c2cccc(C(=O)Nc3nnc(CC)s3)n2)s1", "Potency": "active: 9.28 µM"}
{"smiles": "CC1(CC(=O)N/N=C/c2ccc(-c3ccc(C(=O)O)cc3)o2)OCCO1", "Potency": "inactive"}
{"smiles": "CCOC(=O)CC1C(=O)NCCN1S(=O)(=O)c1cccc(C(F)(F)F)c1", "note": "(configuration not stated)", "Potency": "inconclusive: 20.8 µM [inhibitor, single point]"}
{"smiles": "CCOc1cc(CNCCc2ccc(S(N)(=O)=O)cc2)ccc1OCc1ccc(Cl)cc1", "Potency": "inconclusive: 9.28 µM [inhibitor, partial curve, poor fit]"}
{"smiles": "Cc1cccn2c(=O)c3cc(C(=O)NCCc4ccccc4)c(=N)n(CC4CCCO4)c3nc12", "note": "(configuration not stated)", "Potency": "inactive"}
{"smiles": "COC(=O)c1ccc(NC(=O)c2ccc3c(c2)NC(=O)C2CCCN32)cc1", "note": "(configuration not stated)", "Potency": "active: 7.38 µM"}
{"smiles": "Cc1nn(C)c(C(=O)N/N=C/c2cccc3ccccc23)c1Cl", "Potency": "inactive"}
{"smiles": "CC#CCC(CC#CC)c1nc2ccccc2c(=O)n1N", "Potency": "inconclusive: 18.5 µM [inhibitor, single point]"}
{"smiles": "COc1ccc(-n2cnnc2SCC(=O)Nc2cccc(S(N)(=O)=O)c2)cc1", "Potency": "inactive"}
{"smiles": "O=C1CS/C(=N/N=C/c2ccccc2OS(=O)(=O)c2ccccc2)N1", "Potency": "inconclusive: 14.7 µM [inhibitor, partial curve, poor fit]"}
{"smiles": "CCc1nc(N=Nc2c(O)[nH]c3ccccc23)c2c3c(sc2n1)CCC3", "Potency": "inconclusive: 0.117 µM [inhibitor, full curve, poor fit]"}
{"smiles": "Cc1ccc(NC(=O)CSCc2cc(=O)n3ccsc3n2)cc1", "Potency": "inconclusive: 3.7 µM [inhibitor, full curve]"}
{"smiles": "Cc1cccc(CCN2C(N(C)C)=NC[C@@H]2CC(C)C)c1", "Potency": "inconclusive: 11.7 µM [inhibitor, single point]"}
{"smiles": "O=C(Cn1c(N2CCN(C/C=C/c3ccccc3)CC2)nc2ccccc21)c1ccccc1", "Potency": "inconclusive: 1.85 µM [inhibitor, partial curve, poor fit]"}
{"smiles": "CCOCCn1c(SCC)nc2c1c(=O)[nH]c(=O)n2C", "Potency": "inconclusive: 16.5 µM [inhibitor, partial curve]"}
{"smiles": "COc1cc(CNC(C)(C)CO)cc(Br)c1OCc1ccccc1", "Potency": "inconclusive: 3.7 µM [inhibitor, partial curve, poor fit]"}
{"smiles": "COc1ccc(OCC(=O)C2CC2)c(C#N)c1", "Potency": "inactive"}
{"smiles": "COc1ccccc1C(CNC(=O)c1ccc(C)c(S(=O)(=O)N2CCCCC2)c1)N1CCCC1", "note": "(configuration not stated)", "Potency": "active: 10.4 µM"}
{"smiles": "O=C1CN=C(Nc2ccccc2Cl)N1Cc1ccc2c(c1)OCO2", "Potency": "inactive"}
{"smiles": "CCCCNC(=O)CCn1c(=O)c2cccn2c2ccc(F)cc21", "Potency": "inactive"}
{"smiles": "Cc1ccc(N(Cc2cc(=O)[nH]c3ccccc23)C(=O)CCl)c(C)c1", "Potency": "active: 6.57 µM"}
{"smiles": "CCOC(=O)C1(Cc2ccccc2C)CCCN(C(=O)c2cc(CC)nn2C)C1", "note": "(configuration not stated)", "Potency": "inactive"}
{"smiles": "COc1ccc(-c2cc([C@H]3[C@H]4C=CC[C@@H](C)[C@@H]4C(=O)N3Cc3ccccc3)ccc2F)cc1", "Potency": "inconclusive: 20.8 µM [inhibitor, partial curve, poor fit]"}
{"smiles": "COC(=O)C1=C(C)N(Cc2ccccc2)C(=NCCc2c[nH]c3ccccc23)N[C@H]1c1ccccc1", "Potency": "active: 8.28 µM"}
{"smiles": "CCn1c(SC(C)C(=O)Nc2ccc(N3CCOCC3)cc2)nnc1-c1ccco1", "note": "(configuration not stated)", "Potency": "inactive"}
{"smiles": "CCN(CC)S(=O)(=O)c1ccc(OCC(=O)NC2CCS(=O)(=O)C2)c([N+](=O)[O-])c1", "note": "(configuration not stated)", "Potency": "inconclusive: 6.57 µM [inhibitor, partial curve, poor fit]"}
{"smiles": "N#CC(C#N)=C1C=CC=CN1/C(=C\\c1ccco1)C(=O)c1ccc(Br)cc1", "Potency": "inconclusive: 10.4 µM [inhibitor, single point]"}
{"smiles": "O=C(Nc1ccc(N2CCOCC2)cc1)C1=NN(c2ccccc2)C(=O)CC1", "Potency": "inactive"}
{"smiles": "CCCCN1CC(=O)N2[C@H]3c4cc(C)ccc4OC[C@@H]3[C@H](C(=O)OCC)[C@]2(C)C1=O", "Potency": "inconclusive: 4.15 µM [inhibitor, partial curve, poor fit]"}
{"smiles": "COc1ccccc1C1c2[nH]c3ccccc3c2C[C@H]2C(=O)N(C3CCN(Cc4ccccc4)CC3)CC(=O)N12", "note": "(some centres not stated)", "Potency": "active: 1.47 µM"}
{"smiles": "CCN1CCCC(Sc2nc3c([nH]2)c(=S)n(C)c(=O)n3C)C1", "note": "(configuration not stated)", "Potency": "inconclusive: 1.31 µM [inhibitor, full curve]"}
{"smiles": "COc1ccc(C2OC(=O)CC2C(=O)NC2CCCCCC2)cc1OC", "note": "(configuration not stated)", "Potency": "inconclusive: 9.28 µM [inhibitor, single point]"}
{"smiles": "Cc1ccc(C(=O)N/C(=C/c2cccs2)C(=O)N2CCCCCC2)cc1", "Potency": "inactive"}
{"smiles": "CN(C)S(=O)(=O)c1ccc(NC(=O)Cn2c(-c3ccccc3)noc2=O)cc1", "Potency": "active: 4.65 µM"}
{"smiles": "Cc1ccccc1N(C)S(=O)(=O)c1ccc2[nH]cc(C(=O)NCC3CCCO3)c(=O)c2c1", "note": "(configuration not stated)", "Potency": "inconclusive: 18.5 µM [inhibitor, single point]"}
{"smiles": "COc1ccccc1C1CC(c2ccccc2)=NN1C(=S)Nc1ccccc1", "note": "(configuration not stated)", "Potency": "inconclusive: 8.28 µM [inhibitor, single point]"}
{"smiles": "CCCNC(=O)c1nnsc1S(=O)c1ccc(Cl)cc1", "note": "(configuration not stated)", "Potency": "inconclusive: 13.1 µM [inhibitor, single point]"}
{"smiles": "O=C(CCN1CCCCO1)N1CCCC(Nc2ccc(F)cc2)C1", "note": "(configuration not stated)", "Potency": "active: 11.7 µM"}
{"smiles": "O=[N+]([O-])c1ccccc1/C=C/CN1CCCC(CO)C1", "note": "(configuration not stated)", "Potency": "inactive"}
{"smiles": "Cc1ccc(S(=O)(=O)N2CCCN(S(=O)(=O)c3ccc(C)c(C)c3)CC2)cc1C", "Potency": "inconclusive: 14.7 µM [inhibitor, single point]"}
{"smiles": "CN(CC(=O)Nc1cccnc1)S(=O)(=O)c1cc(Cl)ccc1Cl", "Potency": "inconclusive: 9.28 µM [inhibitor, single point]"}
{"smiles": "Cc1ccc(/C=N/Nc2nncc(-c3ccccc3)n2)o1", "Potency": "inconclusive: 0.928 µM [inhibitor, full curve, poor fit]"}
{"smiles": "Cc1cc(NC(=O)c2ccccc2)ncc1NC(=O)c1cccs1", "Potency": "inactive"}
{"smiles": "O=C(COC(=O)c1cccc(F)c1)Nc1cccnc1Cl", "Potency": "inactive"}
{"smiles": "Cc1cccc(CCNC(=O)Cc2ccc(NC3=NC4CS(=O)(=O)CC4S3)cc2)c1", "note": "(configuration not stated)", "Potency": "inconclusive: 18.5 µM [inhibitor, single point]"}
{"smiles": "c1cc2c(cnc3cscc32)s1", "Potency": "inactive"}
{"smiles": "CN1CCN(c2nc3c(c(=O)[nH]c(=O)n3C)n2CCOc2ccccc2)CC1", "Potency": "inactive"}
{"smiles": "CCC(C)Nc1nc(C)nc2c1oc1ccccc12", "note": "(configuration not stated)", "Potency": "inconclusive: 14.7 µM [inhibitor, single point]"}
{"smiles": "CCCc1cc(C(=O)Nc2sc(C)c(CC)c2C#N)no1", "Potency": "inactive"}
{"smiles": "CCCc1cc(=O)[nH]c(SCC(=O)Nc2ccc(Cl)c(S(=O)(=O)N3CCOCC3)c2)n1", "Potency": "inconclusive: 18.5 µM [inhibitor, single point]"}
{"smiles": "COc1ccccc1CNC(=O)c1ccc(-c2ccccc2)cc1", "Potency": "inconclusive: 13.1 µM [inhibitor, single point]"}
{"smiles": "CSc1ccc(/C=C(/NC(=O)c2ccco2)C(=O)N2CCCCC2)cc1", "Potency": "inconclusive: 18.5 µM [inhibitor, single point]"}
{"smiles": "O=C(c1ccc(F)cc1)N1CCOCC1", "Potency": "inconclusive: 18.5 µM [inhibitor, single point]"}
{"smiles": "CC(C)CCNC(=O)c1ccc2c(c1)ncn2C1CCCCC1", "Potency": "inconclusive: 13.1 µM [inhibitor, single point]"}
